From US20230374090A1 (SURROZEN OPERATING, published 2023)
No constants are given. Whether binding was seen depends on the method and setting. Some binding calls cover weakened binding; strength is not graded here.

Target: T1, human ASGR1 (human, UniProt P07306 62-291, limits assumed)
T1 construct: also called asialoglycoprotein receptor 1; hASGR1
T1 sequence (looked up): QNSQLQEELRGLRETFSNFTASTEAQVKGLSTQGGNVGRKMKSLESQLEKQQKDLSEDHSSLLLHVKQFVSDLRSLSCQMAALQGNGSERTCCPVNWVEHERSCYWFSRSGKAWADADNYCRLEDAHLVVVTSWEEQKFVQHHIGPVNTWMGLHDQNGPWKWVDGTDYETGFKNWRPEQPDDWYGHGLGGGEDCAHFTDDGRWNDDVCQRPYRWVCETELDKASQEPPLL
Test: kinetic binding to human ASGR1, IgG1 format

binding: binds
B1: 8M24 humanized L1H1 (antibody, V domains shown)
VH: EVQLVQSGAEVKKPGSSVKVSCKASGYTFTNYGINWVRQAPGQGLEWMGEIFPRSDNTFYAQKFQGRVTITADKSTSTAYMELSSLRSEDTAVYYCARKGRDYGTSHYFDYWGQGTTVTVSS
VL: DIQMTQSPSSLSASVGDRVTITCRISENIYSNLAWYQQKPGKAPKLLIYAAINLADGVPSRFSGSGSGTDFTLTISSLQPEDFATYYCQHFWGTPFTFGQGTKLEIK
notes: also called 8M24 humanized 1
